No constants are given. Whether binding was seen depends on the method and setting. In cells and extracts the contact can be indirect. Some entries that bind do so weakly or less than the wild type. Where a sequence is shown, tags or fusion partners need not be part of it. One block for each binder: values may come before it.
Key:
[1] = target: T1, GST-BBS-5 (C. elegans) (C. elegans) (UniProt Q21626); test: pull-down; purified GST-BBS-5 (worm) immobilised on Glutathione-Sepharose beads, incubated with MBP-BBS-4 variants 4 hours at 4 °C; 20 mM Tris-HCl pH 7.4, 150 mM KCl, 5 mM MgCl2, 0.5% Triton X-100, 2 mM β-mercaptoethanol; blot with anti-MBP; whether the MBP proteins were purified is not told
T1 sequence: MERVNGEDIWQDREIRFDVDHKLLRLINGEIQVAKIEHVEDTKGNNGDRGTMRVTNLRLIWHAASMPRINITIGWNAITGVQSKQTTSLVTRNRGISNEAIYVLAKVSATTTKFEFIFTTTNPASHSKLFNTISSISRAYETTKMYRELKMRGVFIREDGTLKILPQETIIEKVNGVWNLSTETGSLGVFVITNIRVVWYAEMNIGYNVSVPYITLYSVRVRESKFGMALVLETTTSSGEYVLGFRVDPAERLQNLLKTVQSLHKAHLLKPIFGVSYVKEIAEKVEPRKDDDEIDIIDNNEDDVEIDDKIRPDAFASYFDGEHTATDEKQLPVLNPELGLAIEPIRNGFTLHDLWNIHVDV

[2] = target: T2, Flag-tagged BBS4 wild type (human) (UniProt Q96RK4); test: co-IP; HEK293T co-transfected with Myc-BBS5 and Flag-BBS4; lysate in IP buffer (20 mM Hepes-KOH pH 7.2, 150 mM NaCl, 0.5% NP-40) precipitated with anti-Flag (M2), blot with anti-Myc
T2 sequence: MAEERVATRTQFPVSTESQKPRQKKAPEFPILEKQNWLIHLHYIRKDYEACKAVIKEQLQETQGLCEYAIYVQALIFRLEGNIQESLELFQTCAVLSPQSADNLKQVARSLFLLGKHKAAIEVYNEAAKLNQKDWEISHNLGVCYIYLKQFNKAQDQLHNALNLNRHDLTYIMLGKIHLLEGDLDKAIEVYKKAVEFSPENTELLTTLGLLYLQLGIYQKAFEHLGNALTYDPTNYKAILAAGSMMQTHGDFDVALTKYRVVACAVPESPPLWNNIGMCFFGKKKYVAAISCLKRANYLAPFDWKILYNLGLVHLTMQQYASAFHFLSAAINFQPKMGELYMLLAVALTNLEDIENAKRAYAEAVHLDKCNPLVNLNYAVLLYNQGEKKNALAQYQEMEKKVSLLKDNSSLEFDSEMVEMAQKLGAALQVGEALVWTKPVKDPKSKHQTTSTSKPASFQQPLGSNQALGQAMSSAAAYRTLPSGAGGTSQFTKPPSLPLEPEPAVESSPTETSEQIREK

[3] = target: T3, GST fused human BBS5 (human) (UniProt Q8N3I7); test: pull-down; human proteins; GST fusion on Glutathione-Sepharose beads incubated with MBP fusion, same binding buffer, five washes; blot with anti-MBP; whether the MBP protein was purified is not told
T3 sequence: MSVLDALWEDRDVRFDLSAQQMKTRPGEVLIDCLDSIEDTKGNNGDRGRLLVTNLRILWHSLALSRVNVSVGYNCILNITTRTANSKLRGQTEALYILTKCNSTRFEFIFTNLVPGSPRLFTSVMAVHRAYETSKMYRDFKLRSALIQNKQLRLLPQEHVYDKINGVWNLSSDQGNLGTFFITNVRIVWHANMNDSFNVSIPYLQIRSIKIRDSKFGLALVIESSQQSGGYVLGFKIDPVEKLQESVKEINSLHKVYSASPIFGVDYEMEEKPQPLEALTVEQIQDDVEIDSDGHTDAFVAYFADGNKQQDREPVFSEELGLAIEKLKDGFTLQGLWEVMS

[4] = target: T4, BBS-5 in the BiFC vector VC155 (C. elegans) (C. elegans) (UniProt Q21626); test: split reporter; Venus-based BiFC in living worm cilia; BBS-4 in VN173, BBS-5 in VC155, arl-13 promoter
T4 sequence: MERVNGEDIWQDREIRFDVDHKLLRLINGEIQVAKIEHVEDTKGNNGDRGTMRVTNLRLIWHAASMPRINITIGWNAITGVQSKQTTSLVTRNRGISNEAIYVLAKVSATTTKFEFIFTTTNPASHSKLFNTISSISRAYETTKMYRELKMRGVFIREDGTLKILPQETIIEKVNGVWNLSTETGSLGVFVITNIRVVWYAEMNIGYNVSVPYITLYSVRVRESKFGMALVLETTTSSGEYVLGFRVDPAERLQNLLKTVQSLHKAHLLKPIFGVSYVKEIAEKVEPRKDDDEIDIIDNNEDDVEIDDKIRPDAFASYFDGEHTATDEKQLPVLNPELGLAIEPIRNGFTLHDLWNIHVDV

B3: MBP fused human BBS4 (protein, UniProt Q96RK4 1-519)
chain: MAEERVATRTQFPVSTESQKPRQKKAPEFPILEKQNWLIHLHYIRKDYEACKAVIKEQLQETQGLCEYAIYVQALIFRLEGNIQESLELFQTCAVLSPQSADNLKQVARSLFLLGKHKAAIEVYNEAAKLNQKDWEISHNLGVCYIYLKQFNKAQDQLHNALNLNRHDLTYIMLGKIHLLEGDLDKAIEVYKKAVEFSPENTELLTTLGLLYLQLGIYQKAFEHLGNALTYDPTNYKAILAAGSMMQTHGDFDVALTKYRVVACAVPESPPLWNNIGMCFFGKKKYVAAISCLKRANYLAPFDWKILYNLGLVHLTMQQYASAFHFLSAAINFQPKMGELYMLLAVALTNLEDIENAKRAYAEAVHLDKCNPLVNLNYAVLLYNQGEKKNALAQYQEMEKKVSLLKDNSSLEFDSEMVEMAQKLGAALQVGEALVWTKPVKDPKSKHQTTSTSKPASFQQPLGSNQALGQAMSSAAAYRTLPSGAGGTSQFTKPPSLPLEPEPAVESSPTETSEQIREK
- binding [3]: binds

B5: BBS-4 in the BiFC vector VN173 (C. elegans) (protein, UniProt Q5CZ52 1-462)
chain: MEASNQDEIIGTDVIPNEQDNPEEVVPEPTSLDVPPPPPERAPSAPKRVEILDCNSLNGLMYHYFAQGDYIECKSIIGEIQSKYLERNEAAFHVRGLIARNEGELEEAMECFHKAYELSGKNKRYFYETGRCNFLLGRHQIAVEQLTKASEVMKDNPKVWYWLARAIYHFPAEKVQGKTFNPVESARTILMKPDIAKDATLICFLGRLCEELGDTSGAIAAYKSSLKLQPDNTEVMNLLGLIYLRTGQVQEGFVQLGNCLAYDPANSQAILTIGSIMQNHSDHDVALNKYRVAADVSDYNGCLWNNIGIGLLARNKPAASHSALKKAAFINPLNYKISYNLGVLHDIMNLHCSALHYIKLCTELYPQNAKAVGAMAVILSHMNDDKNARLAYKKSIELKKNPSTILNYAIFEYRMKDVTAASNALKLYKDLQASGVKCSANNKETANLLESVLKQPDQSAEQ
- binding [4]: binds

B7: BBS-4 E107Q, BiFC-tagged (C. elegans) (protein, UniProt Q5CZ52 1-462)
chain: MEASNQDEIIGTDVIPNEQDNPEEVVPEPTSLDVPPPPPERAPSAPKRVEILDCNSLNGLMYHYFAQGDYIECKSIIGEIQSKYLERNEAAFHVRGLIARNEGELEQAMECFHKAYELSGKNKRYFYETGRCNFLLGRHQIAVEQLTKASEVMKDNPKVWYWLARAIYHFPAEKVQGKTFNPVESARTILMKPDIAKDATLICFLGRLCEELGDTSGAIAAYKSSLKLQPDNTEVMNLLGLIYLRTGQVQEGFVQLGNCLAYDPANSQAILTIGSIMQNHSDHDVALNKYRVAADVSDYNGCLWNNIGIGLLARNKPAASHSALKKAAFINPLNYKISYNLGVLHDIMNLHCSALHYIKLCTELYPQNAKAVGAMAVILSHMNDDKNARLAYKKSIELKKNPSTILNYAIFEYRMKDVTAASNALKLYKDLQASGVKCSANNKETANLLESVLKQPDQSAEQ
- binding [4]: binds

Continued, values first:

- binding [1]: binds
B1: MBP-BBS-4 carboxyl-terminus (C-Term, a.a. 270-462; C. elegans) (domain or fragment, UniProt Q5CZ52 270-462)
chain: ILTIGSIMQNHSDHDVALNKYRVAADVSDYNGCLWNNIGIGLLARNKPAASHSALKKAAFINPLNYKISYNLGVLHDIMNLHCSALHYIKLCTELYPQNAKAVGAMAVILSHMNDDKNARLAYKKSIELKKNPSTILNYAIFEYRMKDVTAASNALKLYKDLQASGVKCSANNKETANLLESVLKQPDQSAEQ

- binding [2]: binds
B2: Myc-tagged BBS5 (protein, UniProt Q8N3I7 1-341)
chain: MSVLDALWEDRDVRFDLSAQQMKTRPGEVLIDCLDSIEDTKGNNGDRGRLLVTNLRILWHSLALSRVNVSVGYNCILNITTRTANSKLRGQTEALYILTKCNSTRFEFIFTNLVPGSPRLFTSVMAVHRAYETSKMYRDFKLRSALIQNKQLRLLPQEHVYDKINGVWNLSSDQGNLGTFFITNVRIVWHANMNDSFNVSIPYLQIRSIKIRDSKFGLALVIESSQQSGGYVLGFKIDPVEKLQESVKEINSLHKVYSASPIFGVDYEMEEKPQPLEALTVEQIQDDVEIDSDGHTDAFVAYFADGNKQQDREPVFSEELGLAIEKLKDGFTLQGLWEVMS

- binding [1]: binds
B4: MBP-BBS-4 WT (C. elegans) (protein, UniProt Q5CZ52 1-462)
chain: MEASNQDEIIGTDVIPNEQDNPEEVVPEPTSLDVPPPPPERAPSAPKRVEILDCNSLNGLMYHYFAQGDYIECKSIIGEIQSKYLERNEAAFHVRGLIARNEGELEEAMECFHKAYELSGKNKRYFYETGRCNFLLGRHQIAVEQLTKASEVMKDNPKVWYWLARAIYHFPAEKVQGKTFNPVESARTILMKPDIAKDATLICFLGRLCEELGDTSGAIAAYKSSLKLQPDNTEVMNLLGLIYLRTGQVQEGFVQLGNCLAYDPANSQAILTIGSIMQNHSDHDVALNKYRVAADVSDYNGCLWNNIGIGLLARNKPAASHSALKKAAFINPLNYKISYNLGVLHDIMNLHCSALHYIKLCTELYPQNAKAVGAMAVILSHMNDDKNARLAYKKSIELKKNPSTILNYAIFEYRMKDVTAASNALKLYKDLQASGVKCSANNKETANLLESVLKQPDQSAEQ

- binding [1]: binds
B6: MBP-BBS-4 E107Q (C. elegans) (protein, UniProt Q5CZ52 1-462)
chain: MEASNQDEIIGTDVIPNEQDNPEEVVPEPTSLDVPPPPPERAPSAPKRVEILDCNSLNGLMYHYFAQGDYIECKSIIGEIQSKYLERNEAAFHVRGLIARNEGELEQAMECFHKAYELSGKNKRYFYETGRCNFLLGRHQIAVEQLTKASEVMKDNPKVWYWLARAIYHFPAEKVQGKTFNPVESARTILMKPDIAKDATLICFLGRLCEELGDTSGAIAAYKSSLKLQPDNTEVMNLLGLIYLRTGQVQEGFVQLGNCLAYDPANSQAILTIGSIMQNHSDHDVALNKYRVAADVSDYNGCLWNNIGIGLLARNKPAASHSALKKAAFINPLNYKISYNLGVLHDIMNLHCSALHYIKLCTELYPQNAKAVGAMAVILSHMNDDKNARLAYKKSIELKKNPSTILNYAIFEYRMKDVTAASNALKLYKDLQASGVKCSANNKETANLLESVLKQPDQSAEQ

— article PMC4493597
